Values quoted from earlier work, collected in patent US20160129077A1, “Use of recombinant ganoderma immunoregulatory protein (rLZ-8) in preparation of drug for treating melanoma” (priority 2013, published 2016).
At least one structure is not confirmed: it was looked up by name or label, or the drawing left a doubt.

Tested on: metastatic melanoma
Conditions: advanced melanoma, chemotherapy; cited from earlier work

For `CN(C)/N=N/c1[nH]cnc1C(N)=O` [DTIC, Dacarbazine, reference compound], the Efficiency is listed as 5-10%.
